{
  "source": "paper PMC7819943",
  "about": "“Rice protein-binding microarrays: a tool to detect cis-acting elements near promoter regions in rice”",
  "note": "The other results are listed elsewhere or left out.",
  "data": [
    {"target": "T1, OsSMF1 (Oryza sativa, UniProt Q6ZLB0 1-436)", "T1 sequence": "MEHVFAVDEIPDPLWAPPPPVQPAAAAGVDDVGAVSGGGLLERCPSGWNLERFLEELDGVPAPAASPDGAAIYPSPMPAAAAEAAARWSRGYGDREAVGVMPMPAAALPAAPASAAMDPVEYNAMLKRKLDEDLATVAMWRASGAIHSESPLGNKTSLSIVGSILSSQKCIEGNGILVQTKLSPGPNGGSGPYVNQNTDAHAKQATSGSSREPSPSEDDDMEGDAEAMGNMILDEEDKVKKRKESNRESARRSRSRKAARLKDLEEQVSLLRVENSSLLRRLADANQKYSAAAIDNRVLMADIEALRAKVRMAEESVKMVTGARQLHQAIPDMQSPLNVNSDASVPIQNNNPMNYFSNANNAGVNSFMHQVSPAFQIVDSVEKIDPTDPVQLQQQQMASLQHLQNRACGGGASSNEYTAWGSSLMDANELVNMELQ", "assay": "protein-binding microarray (RPBM); PBS, 2% BSA, 51.3 ng/ul salmon testes DNA, 50 uM zinc acetate, 200 nM TF, 25 C, 1 h; high values mean tight binding", "settings": "protein: recombinant; tags: N-terminal polyhistidine and DsRed monomer fusion (pET32a); chain copies: 2; label: CyDye5-dUTP incorporated in the synthesized complementary strand; 3' TTTTT single-stranded linker to array surface; dsDNA, one strand shown", "summary_of_the_method": "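Ni–NTA purification followed expression in E. coli BL21-CodonPlus of transcription factors fused N-terminally to a polyhistidine tag and DsRed. At 200 nM in PBS with 2% BSA, salmon testes DNA and 50 µM zinc acetate, the protein was incubated for 1 h at 25 °C with a custom Agilent array that had been primer-extended with Cy5-dUTP and blocked with 2% BSA. After washing, the array was read on an Axon 4000B scanner. The binding signal is per-feature fluorescence intensity in arbitrary units.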", "values": [
      {"sequence": "GGAGGAGAGACACAGGAGCAAACAATCAAGCGTGTCAGGTCGGAGTCACCTAGTGCAG", "binding signal": "4030 fluorescence intensity (a.u.)"},
      {"sequence": "GTCGCGCCACGCCTTGCAGACGCAGCGGCACGCCGCGAGCCGGAGTCACCTAGTGCAG", "binding signal": "4270 fluorescence intensity (a.u.)"},
      {"sequence": "ACTGCCTTACCTGTTCATCTTCCAAACTGATTTGGTTTGTCGGAGTCACCTAGTGCAG", "binding signal": "3190 fluorescence intensity (a.u.)"},
      {"sequence": "TTGGTGTACAACAGTAACAGGTCACTGCCACCCATTAGAACGGAGTCACCTAGTGCAG", "binding signal": "3440 fluorescence intensity (a.u.)"},
      {"sequence": "TCAAAATGTATGATGTCATTGACTTTTCACGTAACGTTTGCGGAGTCACCTAGTGCAG", "binding signal": "9940 fluorescence intensity (a.u.)"},
      {"sequence": "GGGCCCCGGCCCCATCTGATATCTACGATGCAACGTACGACGGAGTCACCTAGTGCAG", "binding signal": "4190 fluorescence intensity (a.u.)"},
      {"sequence": "TACCACACGTATCAAATCTAGTACCACCTACAATACCGTGCGGAGTCACCTAGTGCAG", "binding signal": "3360 fluorescence intensity (a.u.)"},
      {"sequence": "GAATCTACATTAGTATGAGCGGTGTCAGGCGACACCAACGCGGAGTCACCTAGTGCAG", "binding signal": "3450 fluorescence intensity (a.u.)"},
      {"sequence": "AACCGTGGTCCAAACAGGGCATATACGTGGATTTTGATACCGGAGTCACCTAGTGCAG", "binding signal": "3660 fluorescence intensity (a.u.)"},
      {"sequence": "TACAGGAGTCATGCAGTGCATGCACGCGAAGCTGTCGTCGCGGAGTCACCTAGTGCAG", "binding signal": "3250 fluorescence intensity (a.u.)"},
      {"sequence": "CTTATCATTTGCAGAGTAAATGGCACATTAAATTCTTTGGCGGAGTCACCTAGTGCAG", "binding signal": "22200 fluorescence intensity (a.u.)"},
      {"sequence": "TTATGTGGTTGCATGCCAGATTTACGGTCAGCAGAAAGCTCGGAGTCACCTAGTGCAG", "binding signal": "6140 fluorescence intensity (a.u.)"},
      {"sequence": "GATTCAATCAAACAGTTATTCCTGTGTTTTGCAATTCTCTCGGAGTCACCTAGTGCAG", "binding signal": "3610 fluorescence intensity (a.u.)"},
      {"sequence": "CTCCCTCCCACCCGCCGCGTCGTCAGTTTTAACGCGCACCCGGAGTCACCTAGTGCAG", "binding signal": "4540 fluorescence intensity (a.u.)"},
      {"sequence": "CTCCTCTTTTCCTCCTGGTCTTCGTCTTCCTCAAGCCATGCGGAGTCACCTAGTGCAG", "binding signal": "3170 fluorescence intensity (a.u.)"},
      {"sequence": "CACGAGACGAATCTTTTAAGCCTAATTGCGTCATGATTTGCGGAGTCACCTAGTGCAG", "binding signal": "6280 fluorescence intensity (a.u.)"},
      {"sequence": "TATAAATTTGGACACATATATGAAACACATATATTGATCCCGGAGTCACCTAGTGCAG", "binding signal": "30400 fluorescence intensity (a.u.)"},
      {"sequence": "TGTGCGGTGTGTTGACGAAATTCACTGACAGGGGAGCATGCGGAGTCACCTAGTGCAG", "binding signal": "3190 fluorescence intensity (a.u.)"},
      {"sequence": "AGTACTTACGTCAGATTTTCCTTCCTTTTCCATTGTACGTCGGAGTCACCTAGTGCAG", "binding signal": "10100 fluorescence intensity (a.u.)"},
      {"sequence": "AGAAACGTCCTTTCCTATCCGGCACAGTGCGCGAAAGGGCCGGAGTCACCTAGTGCAG", "binding signal": "23400 fluorescence intensity (a.u.)"},
      {"sequence": "CTCCTTTCGTAGGAATCCAGGCCCGCTGACCGCGTCATGCCGGAGTCACCTAGTGCAG", "binding signal": "3430 fluorescence intensity (a.u.)"},
      {"sequence": "GTTTTGGATAGCTTAGTGGCGTCATCCTGTTTTCTCTATACGGAGTCACCTAGTGCAG", "binding signal": "3770 fluorescence intensity (a.u.)"},
      {"sequence": "GACCCTACGTGGCGGCTGAATCGGCATGGGACCCACGTGGCGGAGTCACCTAGTGCAG", "binding signal": "15600 fluorescence intensity (a.u.)"},
      {"sequence": "CGTGGGCGCGACACACGTCTCAAGGCTGTGTCTGTACGTCCGGAGTCACCTAGTGCAG", "binding signal": "3140 fluorescence intensity (a.u.)"},
      {"sequence": "GGATGATGTGACTTAATAACAGAAGAGAGAAATAATATTACGGAGTCACCTAGTGCAG", "binding signal": "40600 fluorescence intensity (a.u.)"},
      {"sequence": "ATTTAACTATCTGTCACTTTTACATGTGGCATCACTTAACCGGAGTCACCTAGTGCAG", "binding signal": "5130 fluorescence intensity (a.u.)"},
      {"sequence": "TGTAAGCAGGAAGCCTACGTGGCAACTTTACGGCGCAACGCGGAGTCACCTAGTGCAG", "binding signal": "9490 fluorescence intensity (a.u.)"},
      {"sequence": "CTATCTCGCCGAGTCGCCAGTCACCGCCTCGACGCCGGTCCGGAGTCACCTAGTGCAG", "binding signal": "3160 fluorescence intensity (a.u.)"},
      {"sequence": "TTGTGATCCTAGCCTGCAACATATGTAGTATTCCTATCCTCGGAGTCACCTAGTGCAG", "binding signal": "4790 fluorescence intensity (a.u.)"},
      {"sequence": "ATTCATCATAACAATATAAAGATTTGTTTCAGATTAGTCCCGGAGTCACCTAGTGCAG", "binding signal": "31100 fluorescence intensity (a.u.)"},
      {"sequence": "GGTTTGCCGATCTTAGCTACATCATTGCTTCCACCTTTGCCGGAGTCACCTAGTGCAG", "binding signal": "4600 fluorescence intensity (a.u.)"},
      {"sequence": "TCTCTCTAGAAAGTTACTGGGTGACACCACACAGAACCCCCGGAGTCACCTAGTGCAG", "binding signal": "5210 fluorescence intensity (a.u.)"},
      {"sequence": "ATGATTTATAAGAATATAATTCGGACTTGACGTCAAGATGCGGAGTCACCTAGTGCAG", "binding signal": "3860 fluorescence intensity (a.u.)"},
      {"sequence": "GATGGTCACTAGTCACCACGTACGCGAAATTTCCAAGCTCCGGAGTCACCTAGTGCAG", "binding signal": "5820 fluorescence intensity (a.u.)"},
      {"sequence": "TACTCGGATTAATTGCTTAGAGAGTACATGTAGACTATTGCGGAGTCACCTAGTGCAG", "binding signal": "35600 fluorescence intensity (a.u.)"},
      {"sequence": "GTCATGCTAGCCAGCTGCATTGTGATCTCCACGGCGGCGACGGAGTCACCTAGTGCAG", "binding signal": "3790 fluorescence intensity (a.u.)"},
      {"sequence": "ACATGTGGGCCAGCAGCCCAGCACGTGTCTTCCCCTGTTGCGGAGTCACCTAGTGCAG", "binding signal": "5970 fluorescence intensity (a.u.)"},
      {"sequence": "CTTTTATGGGCGTGGGCCCTACGCGTGTGCGCACGAGGAGCGGAGTCACCTAGTGCAG", "binding signal": "3280 fluorescence intensity (a.u.)"},
      {"sequence": "GAGGAGGAGGAGGCTGATGTGGCAGCCTGACATGTGGGGCCGGAGTCACCTAGTGCAG", "binding signal": "7020 fluorescence intensity (a.u.)"},
      {"sequence": "TTCCAGACGCGTCACCACTCTTCACCCACCATTCCAGTGCCGGAGTCACCTAGTGCAG", "binding signal": "8520 fluorescence intensity (a.u.)"},
      {"sequence": "CGCCGGAGACGCCATTGCCGTGATCTGGTGGTGGTTACCTCGGAGTCACCTAGTGCAG", "binding signal": "4090 fluorescence intensity (a.u.)"},
      {"sequence": "CTCTGCCTCTGCTCCGGCCTCCACGCCCCATCGCCGCCGCCGGAGTCACCTAGTGCAG", "binding signal": "3180 fluorescence intensity (a.u.)"}
    ]}
  ]
}
